Results are given in words; binding and its absence hold for the method and conditions named. In cells and extracts the contact can be indirect. Where a sequence is shown, tags or fusion partners need not be part of it.
Biological target: T1, 1700029I15Rik-3 × FLAG (mouse) (UniProt Q8CF31)
T1 sequence: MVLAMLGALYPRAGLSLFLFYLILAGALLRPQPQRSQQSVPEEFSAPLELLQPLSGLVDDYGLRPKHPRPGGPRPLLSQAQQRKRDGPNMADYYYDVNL
Assay: co-IP; lysates of HEK293T cells transiently expressing 1700029I15Rik-3 × FLAG; antibody-conjugated magnetic beads; SDS-PAGE and Western blot of endogenous partners

The chains behind the UniProt entries cited, without tags or fusion partners. Residues count along the entry.
UniProt P30101, residues 25-505: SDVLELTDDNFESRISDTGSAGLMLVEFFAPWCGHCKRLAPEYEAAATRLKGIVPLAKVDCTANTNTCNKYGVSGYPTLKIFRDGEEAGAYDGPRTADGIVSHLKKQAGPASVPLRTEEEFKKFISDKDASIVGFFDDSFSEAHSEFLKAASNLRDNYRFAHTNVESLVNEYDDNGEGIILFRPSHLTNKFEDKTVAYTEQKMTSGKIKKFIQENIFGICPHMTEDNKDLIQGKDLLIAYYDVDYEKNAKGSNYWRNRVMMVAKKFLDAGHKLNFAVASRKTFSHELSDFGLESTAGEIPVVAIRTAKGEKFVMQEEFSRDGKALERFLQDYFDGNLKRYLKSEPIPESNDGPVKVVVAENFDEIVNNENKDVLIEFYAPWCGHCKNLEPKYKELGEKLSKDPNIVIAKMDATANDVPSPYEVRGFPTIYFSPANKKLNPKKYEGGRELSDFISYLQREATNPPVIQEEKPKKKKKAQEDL

With “endogenous PDIA3 of HEK293T cells (from UniProt P30101 25-505)” as the substance, how does the binding read?
Its binding is “no binding”.

Source: publication PMC9974436
